Among the data in patent CN117946265A are binding values, retold here.

Results are given in words; binding and its absence hold for the method and conditions named. Some entries that bind do so weakly or less than the wild type.

For this experiment, the target named is 猴CX3CL1胞外区蛋白 cynoCX3CL1-His (猴 (cyno)). Briefly: ELISA, antigen coated at 1 μg/mL. On the technique in general: ELISA stands for enzyme-linked immunosorbent assay.

B1: C032 (antibody, human IgG2, kappa, V domains shown)
VH: EVQLQQSGPELVKPGASVKISCKASGYTFTDYYMNWVKQSHGKSLEWIGDINPNNGGTSYNQKFKGKATLTVDKSSSTAYMELRSLTSEDSAVYYCASSGNSYVDYWGQGTTLTVSS
VL: DIVMTQSHKFMSTSVGDRVSITCKASQDVSTAVAWYQQKPGQSPKLLIYWASTRHTGVPDRFTGSGSGTDYTLTISSVQAEDLALYYCQQHYSSPYTFGGGTKLEIKR
On to B1, for which the binding result was “binds”.

B2: C032QG (antibody, human IgG2, kappa, V domains shown)
VH: EVQLQQSGPELVKPGASVKISCKASGYTFTDYYMNWVKQSHGKSLEWIGDINPNQGGTSYNQKFKGKATLTVDKSSSTAYMELRSLTSEDSAVYYCASSGNSYVDYWGQGTTLTVSS
VL: DIVMTQSHKFMSTSVGDRVSITCKASQDVSTAVAWYQQKPGQSPKLLIYWASTRHTGVPDRFTGSGSGTDYTLTISSVQAEDLALYYCQQHYSSPYTFGGGTKLEIKR
With B2, the binding result is recorded as “binds”.

B3: C032NA (antibody, human IgG2, kappa, V domains shown)
VH: EVQLQQSGPELVKPGASVKISCKASGYTFTDYYMNWVKQSHGKSLEWIGDINPNNAGTSYNQKFKGKATLTVDKSSSTAYMELRSLTSEDSAVYYCASSGNSYVDYWGQGTTLTVSS
VL: DIVMTQSHKFMSTSVGDRVSITCKASQDVSTAVAWYQQKPGQSPKLLIYWASTRHTGVPDRFTGSGSGTDYTLTISSVQAEDLALYYCQQHYSSPYTFGGGTKLEIKR
As for B3, the binding entry is recorded as “binds”.

B4: mAb032 (antibody, V domains shown)
VH: EVQLQQSGPELVKPGASVKISCKASGYTFTDYYMNWVKQSHGKSLEWIGDINPNNGGTSYNQKFKGKATLTVDKSSSTAYMELRSLTSEDSAVYYCASSGNSYVDYWGQGTTLTVSS
VL: DIVMTQSHKFMSTSVGDRVSITCKASQDVSTAVAWYQQKPGQSPKLLIYWASTRHTGVPDRFTGSGSGTDYTLTISSVQAEDLALYYCQQHYSSPYTFGGGTKLEIK
As to B4, the binding entry is reported as “binds”.
